Measured values from PubChem BioAssay AID504648 (National Center for Advancing Translational Sciences (NCATS), 2011).
The campaign covered roughly 390,000 compounds. About 610 (0.16%) were called active. This list was built around the results that the source calls inconclusive (neither active nor inactive); the mix of calls is not that of the screen. Calls follow the shape of the dose curve; as a rule, active = well fitted inhibition curve with a large enough effect; inconclusive = small, poorly fitted or top-dose-only effect, or effect the other way, or another doubt; inactive = no such curve, though single readings can be large or run the other way. A potency beside an inconclusive call is a rough fit, not a confirmed value.
% is scaled to controls: 0 for no effect and ±100 for the full control effect; potency is read from the fitted curve at half-maximal effect.

Assay: Nrf2 qHTS screen for inhibitors: counterscreen for cytotoxicity
Conditions: A549 ARE-Fluc cells, CellTiter-Fluor viability, 18-24 h; activity change, negative = cytotoxicity: at 46 µM (top of the series)
In short: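 A549 ARE_Fluc cells in 5% FBS OPTI-MEM were exposed to compounds in concentration-response for 18-24 h at 37 deg C. Viability was read by CellTiter-Fluor fluorescence (Ex 405/Em 525) after 30 min, before the luciferase read.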
With `COCCN(C(=S)Nc1ccc(C(C)C)cc1)C(C)c1cccs1` (stereo not drawn) the Potency was inconclusive: 23.1 µM [activator, partial curve, poor fit]. With `O=C1C(=Nc2cccc(Cl)c2)CC(c2ccc(Cl)cc2)N1c1cccc(Cl)c1` (stereo not drawn) the Potency was inconclusive: 0.651 µM [activator, full curve, poor fit]. For `O=C(NCCc1cn2ccccc2n1)c1ccc(Br)o1`, the Potency was inconclusive: 29.1 µM [activator, single point]. For `CN(Cc1ccn[nH]1)C(=O)C1CCC(=O)N(Cc2cccc(C(F)(F)F)c2)C1` (stereo not drawn), the “activity change, negative = cytotoxicity” value was inactive: 0.668%. With `CC1(C)CC2(CC(c3ccccc3)c3ccc(O)cc3O2)NC(=S)N1` (stereo not drawn) the “activity change, negative = cytotoxicity” value was inactive: 10.7%. With `COc1ccc(-c2cc(C(=O)N3CCN(c4ncccn4)CC3)c3ccccc3n2)c(OC)c1` the “activity change, negative = cytotoxicity” value was inactive: -2.84%. In the case of `Cc1cccc(-n2ncc3c(NCCN4CCOCC4)ncnc32)c1`, the “activity change, negative = cytotoxicity” value is reported as inactive: 10.5%. In the case of `CCC(C)NC(=O)C1CCN(S(=O)(=O)N2CCCC2)CC1` (stereo not drawn), the Potency is reported as inconclusive: 18.4 µM [activator, partial curve, poor fit]. In the case of `CN1CCN(CCCNC(=O)Cn2c(-c3cccs3)cc3ccccc32)CC1`, the “activity change, negative = cytotoxicity” value is reported as inactive: -13.6%. In the case of `Cc1ccc2c(c1)C1CN(C)CCC1N2C(=O)c1cccc(S(=O)(=O)N2CC(C)CC(C)C2)c1` (stereo not drawn), the Potency is reported as inconclusive: 29.1 µM [falling, single point]. In the case of `Cc1ccc2c(c1)nnn2C1CCN(S(=O)(=O)c2ccc(C(=O)N(C)C3CCCCC3)cc2)CC1`, the Potency is reported as inconclusive: 9.2 µM [falling, single point]. With `O=C(CCc1ccccc1)NC(NC(=S)Nc1ccc(Cl)cc1)C(Cl)(Cl)Cl` (stereo not drawn) the Potency was inconclusive: 20.6 µM [falling, single point]. For `Cc1nnc(N2CCCC(C(=O)NCc3cccc(F)c3)C2)c2nn(-c3ccccc3)c(C)c12` (stereo not drawn), the Potency was inconclusive: 29.1 µM [falling, single point]. In the case of `COc1ccc(-c2nc(CSCC(=O)NC3CC3)c(C)o2)cc1OC`, the “activity change, negative = cytotoxicity” value is reported as inactive: 7.21%. For `CCOc1ccc2c(c1)c(=O)c(S(=O)(=O)c1ccccc1)cn2CC(=O)Nc1ccccc1OC`, the “activity change, negative = cytotoxicity” value was inactive: -0.84%. In the case of `Cc1cccc(C(=O)NCC(=O)OCC(=O)c2ccc3ccccc3c2)c1`, the “activity change, negative = cytotoxicity” value is reported as inactive: -8.87%. For `c1ccc(C[n+]2csc3ccccc32)cc1`, the “activity change, negative = cytotoxicity” value was inactive: -6.68%. In the case of `Cn1cnc2nc(Cl)nc(Cl)c21`, the Potency is reported as inconclusive: 32.6 µM [falling, partial curve, poor fit]. With `Cc1cccc(C)c1OCC(O)CNC(C)(C)C` (stereo not drawn) the Potency was inconclusive: 16.4 µM [activator, partial curve, poor fit]. With `CCOc1ccc(S(=O)(=O)N(CC(=O)NCCc2ccc(OC)c(OC)c2)c2ccccc2)cc1` the “activity change, negative = cytotoxicity” value was inactive: -11.1%. With `CCCCn1c(SCC(=O)N2c3ccccc3Sc3ccccc32)nc2c1c(=O)n(C)c(=O)n2C` the Potency was inconclusive: 7.31 µM [falling, single point]. For `C=CCN1C(=O)/C(=C\c2cccc(OC(=O)c3ccco3)c2)SC1=S`, the Potency was inconclusive: 7.31 µM [falling, partial curve, poor fit]. In the case of `COc1ccc(Cl)cc1NC(=O)CSC1=NN2CCCC(=O)N=C2S1`, the “activity change, negative = cytotoxicity” value is reported as inactive: -12.7%. For `O=C(Nc1cccc(C(F)(F)F)c1)Nc1ccc(N2CCCC2)c(S(=O)(=O)Nc2ccccc2Cl)c1`, the Potency was inconclusive: 8.2 µM [falling, partial curve]. For `CCN(C(=O)CSc1cc(-c2ccccc2)c2ccc(OC)cc2n1)C1CCS(=O)(=O)C1` (stereo not drawn), the Potency was inconclusive: 29.1 µM [falling, single point]. For `CCOc1ccc(-n2ccnc(SCC(=O)Nc3ccc(CC)cc3)c2=O)cc1`, the “activity change, negative = cytotoxicity” value was inactive: -5.74%. With `O=C(O)c1cc(-c2ccc(/C=N/Nc3ccc([N+](=O)[O-])cn3)o2)ccc1Cl` the Potency was inconclusive: 29.1 µM [falling, single point]. With `N=c1n(CCN2CCCCC2)c2ccccc2n1CC(O)c1cccc(Br)c1` (stereo not drawn) the Potency was inconclusive: 23.1 µM [falling, single point]. In the case of `CCOC(=O)c1cnc2ccc(OCC)cc2c1N1CCN(c2ccccc2OC)CC1`, the Potency is reported as inconclusive: 29.1 µM [falling, single point]. With `O=C(N/N=C/c1ccc(O)cc1)c1ccc(COc2cc(Cl)ccc2Cl)o1` the Potency was inconclusive: 18.4 µM [falling, partial curve]. For `CC(=O)NC1=NN(C(C)=O)C(c2cccc([N+](=O)[O-])c2)S1` (stereo not drawn), the Potency was inconclusive: 4.11 µM [activator, full curve]. For `O=C(NCc1ccco1)c1cccnc1-c1nc2ccccc2s1`, the “activity change, negative = cytotoxicity” value was inactive: -2.93%. In the case of `O=C(c1ccccc1)N1CCN(C(=O)N2CCOCC2)CC1`, the Potency is reported as inconclusive: 23.1 µM [activator, partial curve, poor fit]. With `CCN1C(=O)/C(=C/c2ccc(C)o2)N(C)C1=S` the “activity change, negative = cytotoxicity” value was inactive: -2.98%. With `O=c1c(C(c2ccccc2)c2c(O)nc3n(c2=O)CCCS3)c(O)nc2n1CCCS2` the “activity change, negative = cytotoxicity” value was inactive: -4.04%. With `COc1ccc(C2C(C#N)=C(SCC(=O)Nc3ccc(C)cc3)NC3=C2C(=O)CC(C)(C)C3)cc1` (stereo not drawn) the Potency was inconclusive: 29.1 µM [falling, partial curve, poor fit]. With `COc1ccc(C2C(C(=O)c3ccco3)=C(O)C(=O)N2c2nnc(C)s2)cc1OC` (stereo not drawn) the Potency was inconclusive: 20.6 µM [falling, partial curve, poor fit]. For `Cc1ccc(OCC(O)Cn2c(=N)n(CCN3CCCCC3)c3ccccc32)cc1` (stereo not drawn), the Potency was inconclusive: 32.6 µM [falling, single point]. In the case of `CC1CCN(CC(=O)Nc2cccc(C(=O)Nc3cccc(C(F)(F)F)c3)c2)CC1`, the Potency is reported as inconclusive: 32.6 µM [falling, partial curve, poor fit]. With `C/C(=N/NC(=O)c1ccc(Br)o1)c1cccc(NC(=O)c2ccc(F)cc2)c1` the “activity change, negative = cytotoxicity” value was inactive: -10.5%. With `COc1ccc(S(=O)(=O)N2CCCCC2)cc1NC(=O)C1CC(=O)N(c2ccc3c(c2)OCCO3)C1` (stereo not drawn) the Potency was inconclusive: 14.6 µM [falling, partial curve, poor fit]. In the case of `CN(C(=O)NC(=O)C1=C(N2CCOCC2)/C(=C/c2ccccc2)CC1)S(C)(=O)=O`, the Potency is reported as inconclusive: 4.11 µM [activator, single point]. For `CCC1CCCCN1CCCNC(=O)c1ccc2c(=O)n(CCOC)c(=O)[nH]c2c1` (stereo not drawn), the “activity change, negative = cytotoxicity” value was inactive: -15.2%.
